Drawing on publication PMC13225716, this text covers binding for 1 substance.

Chains of the proteins cited; added tags and fusions are not shown.
UniProt P84077: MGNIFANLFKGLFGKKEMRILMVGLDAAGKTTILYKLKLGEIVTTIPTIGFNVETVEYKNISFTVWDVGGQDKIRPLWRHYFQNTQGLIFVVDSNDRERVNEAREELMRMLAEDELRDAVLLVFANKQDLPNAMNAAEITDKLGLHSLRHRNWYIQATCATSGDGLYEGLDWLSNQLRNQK

The experiment has as its target T1, GST-GGA3 fusion protein (UniProt Q9NZ52).
T1 sequence: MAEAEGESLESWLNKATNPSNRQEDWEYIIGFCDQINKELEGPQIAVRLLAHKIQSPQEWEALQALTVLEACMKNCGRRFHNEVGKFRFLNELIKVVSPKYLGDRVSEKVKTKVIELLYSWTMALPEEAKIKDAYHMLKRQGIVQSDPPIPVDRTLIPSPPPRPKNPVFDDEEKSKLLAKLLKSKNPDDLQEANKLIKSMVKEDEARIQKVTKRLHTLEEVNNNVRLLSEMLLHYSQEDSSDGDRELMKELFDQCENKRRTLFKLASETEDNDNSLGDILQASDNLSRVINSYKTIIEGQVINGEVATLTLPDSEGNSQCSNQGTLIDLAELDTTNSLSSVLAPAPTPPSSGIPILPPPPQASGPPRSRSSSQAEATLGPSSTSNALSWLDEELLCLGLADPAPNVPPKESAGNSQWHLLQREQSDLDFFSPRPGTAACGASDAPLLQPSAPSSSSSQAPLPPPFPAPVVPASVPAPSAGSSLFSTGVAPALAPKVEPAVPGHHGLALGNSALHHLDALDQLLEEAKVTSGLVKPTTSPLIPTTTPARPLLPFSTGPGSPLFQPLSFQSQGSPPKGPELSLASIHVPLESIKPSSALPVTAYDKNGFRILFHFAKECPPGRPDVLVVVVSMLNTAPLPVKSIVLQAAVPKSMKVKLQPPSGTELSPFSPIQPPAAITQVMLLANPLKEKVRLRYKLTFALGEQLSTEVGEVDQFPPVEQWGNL
The experiment in a line: pull-down; 60 ug GST-GGA3 pre-bound to glutathione-sepharose beads; 400 ul cell lysate in activity assay buffer, 4°C, 35 min, 9 rpm; washed, eluted in Laemmli buffer, blot for Arf1; lysates of MDAMB231 or A549 cells (adherent or suspended; DMSO or R428; siAXL or siArf1 knock-down); only the target purified.

No constants are given. Whether binding was seen depends on the method and setting. Binding seen in cells or lysates may run through a third protein. Some results given as binding are weak or reduced against the parent protein; the word gives no strength. Tags and fused reporters may be left off the sequences shown.

Turning to Arf1 (from UniProt P84077 1-181), the binding entry is listed as “binds”.
